Experimental data from US12295937B2, “Psychoactive medicines and their use for treating psychiatric and neurological conditions and disorders” (Transcend Therapeutics, Inc., priority 2021, dated 2025).

Assay: Mouse fear extinction paradigm (PTSD model)
Assay type: in vivo
Conditions: methylone day 3; MBDB day 2
Text: (FIG. 9A) Schematic of experimental design. A single CS-US (tone-shock) pairing on day 1 was followed by 6 CS presentations in a novel context (context B). […] On day 3, the time spent freezing to the CS was quantified. […] (FIG. 9C) No locomotor changes were observed on day 3 (t(26)=1.073, p>0.05). Data are mcan+/−SEM.
FIGS. 10A-10B: MBDB improves fear extinction in a PTSD mouse model. A single CS-US (tone-shock) pairing on day 1 was followed by 6 conditioned stimulus (CS) presentations in a novel context (context B). MBDB or saline vehicle was injected 30 min prior to extinction training on day 2. The time spent freezing to the CS was quantified on day 2. […] Data are mean+/−SEM. N=10 for MBDB group (5 mg/kg, IP) and N=16 for saline control group. **p<0.01 vs. vehicle control group.
Effective PTSD treatments facilitate the disassociation between a traumatic memory and the patient's fear response, making cues for the traumatic memory evoke less of a fear response. This is modeled in the mouse fear extinction paradigm (see FIG. 9A) which takes place over 3 days. […] On day 3 (extinction recall), the mice are “asked” if that tone (CS) still elicits a fearful response, as measured by the time spent freezing when the tone is presented. […]

Compound: CNC(C)C(=O)c1ccc2c(c1)OCO2 (centres unmarked) [Methylone, 3,4-methylenedioxy-N-methylcathinone]
- Locomotor activity during fear extinction testing: no differences between groups in locomotion

Compound: CCC(Cc1ccc2c(c1)OCO2)NC (racemic) [MBDB, N-methyl-1-(1,3-benzodioxol-5-yl)-2-aminobutane]
- Locomotor activity during fear extinction testing: small, but significant increase in locomotor activity
